Values from PubChem BioAssay AID504793 (Drosophila RNAi Screening Center, 2011).
Test: 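Whole-genome screen for parts of the DNA damage checkpoint at G2/M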 (primary screen). Cells: Drosophila S2R+ cells. Reagent: long dsRNA against Drosophila genes, about 0.25 µg dsRNA per well. Timing: 4 days of dsRNA, then 4 hours of drug before read-out. Treatment: doxorubicin 0.5 µM for 4 hours to cause double-strand breaks, in cells also given a low, harmless dose of dsRNA against nbs to sensitise the assay. Read-out: 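Mitotic index as the number of phospho-histone H3-positive cells in each well following doxorubicin, given as raw counts without normalisation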. Reading the numbers: mitotic cells: higher = more cells in mitosis, weaker G2 arrest. Rule for the call: 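a call needs confirmation in secondary tests, with other dsRNAs and a check of mitotic timing without damage, not just a high primary count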. Meaning of the calls: active = confirmed in follow-up tests; inactive = not confirmed.
The screen tested about 23,000 reagents; shown is an unselected part of those that have a named target and a result. Over the whole deposit, 62 (0.27%) got an active call. 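Calls come from follow-up tests whose scores are not deposited, so confirmed genes may have low counts here; counts are not normalised per plate.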 The raw values are shown without normalisation. A plus sign joins genes that one reagent is predicted to hit.

| gene | dsRNA | mitotic cells, replicate 1 | mitotic cells, replicate 2 | activity call |
| --- | --- | --- | --- | --- |
| sni | DRSC17770 | 5 | – | inactive |
| sni | DRSC25897 | 3 | – | inactive |
| CG2186 | DRSC19838 | 9 | – | inactive |
| CG2186 | DRSC25389 | 2 | – | inactive |
| Cdk2 | DRSC16921 | 8 | – | inactive |
| CG4942 | DRSC10462 | 6 | – | inactive |
| lab | DRSC12627 | 10 | – | inactive |
| lab | DRSC25048 | 2 | – | inactive |
| Hem | DRSC11865 | 9 | – | inactive |
| ds | DRSC00815 | 3 | – | inactive |
| CG14551 | DRSC14894 | 11 | – | inactive |
| SLO2 | DRSC06214 | 5 | – | inactive |
| SLO2 | DRSC06216 | 7 | – | inactive |
| SLO2 | DRSC06218 | 8 | – | inactive |
| SLO2 | DRSC23225 | 12 | – | inactive |
| SLO2 | DRSC27805 | 2 | – | inactive |
| Tbcd | DRSC00273 | 1 | – | inactive |
| Grip75 | DRSC03337 | 12 | – | inactive |
| robo2 | DRSC00377 | 2 | – | inactive |
| robo2 | DRSC00378 | 8 | – | inactive |
| robo2 | DRSC00686 | 5 | – | inactive |
| robo2 | DRSC00691 | 13 | – | inactive |
| Snp | DRSC04524 | 7 | – | inactive |
| Snp | DRSC21538 | 5 | – | inactive |
| jub | DRSC19367 | 5 | – | inactive |
| jub | DRSC26225 | 10 | – | inactive |
| Atg18b | DRSC03108 | 1 | – | inactive |
| Atg18b | DRSC28594 | 4 | – | inactive |
| CG1387 | DRSC17904 | 4 | – | inactive |
| Xbp1 | DRSC04553 | 9 | – | inactive |
| Xbp1 | DRSC21624 | 12 | – | inactive |
| CG3708 | DRSC18646 | 19 | – | inactive |
| CG42827 + CG42828 | DRSC16116 | 12 | 9 | inactive |
| Tom40 | DRSC18796 | 8 | – | inactive |
| CG34221 | DRSC06150 | 6 | – | inactive |
| CG15153 | DRSC02454 | 9 | – | inactive |
| CG15153 | DRSC26085 | 7 | – | inactive |
| CG34345 | DRSC02126 | 2 | – | inactive |
| Cpr64Ac | DRSC08462 | 8 | – | inactive |
| Cpr64Ac | DRSC27976 | 5 | – | inactive |
| I-2 | DRSC11194 | 9 | – | inactive |
| I-2 | DRSC23300 | 7 | – | inactive |
| CG14984 | DRSC08442 | 5 | – | inactive |
| CG14984 | DRSC27683 | 4 | – | inactive |
| CG15425 | DRSC00440 | 4 | – | inactive |
| CG15425 | DRSC24897 | 5 | – | inactive |
| T48 | DRSC16878 | 9 | – | inactive |
| CG32026 | DRSC08950 | 9 | – | inactive |
| CG32026 | DRSC27384 | 6 | – | inactive |
| sm | DRSC05795 | 4 | – | inactive |
| sm | DRSC07686 | 3 | – | inactive |
| Mau2 | DRSC15550 | 6 | – | inactive |
| CG13982 | DRSC02314 | 10 | – | inactive |
| TBPH | DRSC04660 | 4 | – | inactive |
| TBPH | DRSC28032 | 7 | – | inactive |
| CG6503 | DRSC16056 | 4 | – | inactive |
| CG6503 | DRSC29619 | 7 | – | inactive |
| CG1971 | DRSC15406 | 7 | – | inactive |
| CG1971 | DRSC28390 | 1 | – | inactive |
| RpLP0-like | DRSC06424 | 4 | – | inactive |
| RpLP0-like | DRSC28206 | 5 | – | inactive |
| Cyp313b1 | DRSC16629 | 6 | – | inactive |
| Kdm5 | DRSC03133 | 2 | – | inactive |
| Kdm5 | DRSC29570 | 4 | – | inactive |
| Pino | DRSC00038 | 4 | – | inactive |
| Pino | DRSC00662 | 4 | – | inactive |
| SCCRO3 | DRSC06359 | 2 | – | inactive |
| SCCRO3 | DRSC26409 | 1 | – | inactive |
| CG15894 | DRSC18098 | 14 | – | inactive |
| Ssl1 | DRSC11634 | 11 | – | inactive |
| Spred | DRSC05976 | 5 | – | inactive |
| Spred | DRSC27475 | 6 | – | inactive |
| CG8837 | DRSC00711 | 4 | – | inactive |
| CG8837 | DRSC29440 | 5 | – | inactive |
| CG32633 | DRSC18987 | 4 | – | inactive |

Reformatted: entries from further up
CG14551 [DRSC14894]
- mitotic cells, replicate 1: 11
- activity call: inactive

SLO2 [DRSC06214]
- mitotic cells, replicate 1: 5
- activity call: inactive

SLO2 [DRSC06216]
- mitotic cells, replicate 1: 7
- activity call: inactive

SLO2 [DRSC06218]
- mitotic cells, replicate 1: 8
- activity call: inactive

SLO2 [DRSC23225]
- mitotic cells, replicate 1: 12
- activity call: inactive

SLO2 [DRSC27805]
- mitotic cells, replicate 1: 2
- activity call: inactive

Tbcd [DRSC00273]
- mitotic cells, replicate 1: 1
- activity call: inactive

Grip75 [DRSC03337]
- mitotic cells, replicate 1: 12
- activity call: inactive

robo2 [DRSC00377]
- mitotic cells, replicate 1: 2
- activity call: inactive

robo2 [DRSC00378]
- mitotic cells, replicate 1: 8
- activity call: inactive

robo2 [DRSC00686]
- mitotic cells, replicate 1: 5
- activity call: inactive
